Assay [1] has as its target extracellular domain of the δ subunit of GABAA receptor (amino acid 17–248), two-hybrid bait (UniProt P18506). Briefly: two-hybrid; Matchmaker Gold Yeast Two-Hybrid screen; bait extra-δ (17-248) in pGBKT7, prey mouse cerebellar cDNA library in pGADT7; reporters AUR1-C, ADE2, HIS3, MEL1.
Assay [2] addresses transthyretin (TTR), endogenous in mouse cerebellum (mouse (endogenous in cerebellum)) (UniProt P07309). Put plainly: co-IP; adult mouse cerebellum extract (25 mM Tris/HCl pH 7.4, 150 mM NaCl, 1% NP-40, 1 mM EDTA, 5% glycerol) immunoprecipitated with anti-TTR antibody, normal IgG as control; blotted with rabbit anti-δ antibody.

Results are given in words; binding and its absence hold for the method and conditions named. For some assays here: In cells and extracts the contact can be indirect. Some binding calls cover weakened binding; strength is not graded here.

Take “transthyretin (TTR) positive clone encoding amino acid 73–147, two-hybrid prey (from UniProt P07309 73-147) (domain or fragment)”: the binding entry in assay [1] is listed as “binds”.

B1: GABAA receptor δ subunit, endogenous in mouse cerebellum (receptor, UniProt P22933 25-449)
chain: MNDIGDYVGSNLEISWLPNLDGLMEGYARNFRPGIGGAPVNVALALEVASIDHISEANMEYTMTVFLHQSWRDSRLSYNHTNETLGLDSRFVDKLWLPDTFIVNAKSAWFHDVTVENKLIRLQPDGVILYSIRITSTVACDMDLAKYPLDEQECMLDLESYGYSSEDIVYYWSENQEQIHGLDRLQLAQFTITSYRFTTELMNFKSAGQFPRLSLHFQLRRNRGVYIIQSYMPSVLLVAMSWVSFWISQAAVPARVSLGITTVLTMTTLMVSARSSLPRASAIKALDVYFWICYVFVFAALVEYAFAHFNADYRKKRKAKVKVTKPRAEMDVRNAIVLFSLSAAGVSQELAISRRQGRVPGNLMGSYRSVEVEAKKEGGSRPGGPGGIRSRLKPIDADTIDIYARAVFPAAFAAVNIIYWAAYTM
On to B1, for which, in assay [2], the binding result was “binds”.

The values are drawn from paper PMC6322723.
